PubChem BioAssay AID1259405 | NCATS – 2018
Shown is a random part of about 50,000 deposited reagents. Of all reagents, about 4,000 (8%) got an active call. 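Mouse siRNA library applied to hamster cells; one well for each siRNA.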 Entries without a mark were called inactive. The numbers tell different reagents against one gene apart. Reagent sequences are not shown.

Screen: 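Silenced genes that increase secreted GFP made by CHO cells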 (primary screen)
System: Chinese hamster CHO-K1 ovary cells with stable secreted eGFP expression
Knock-down reagent: single siRNA against mouse genes, 0.8 pmol siRNA per well (2 µl of 400 nM stock)
Time to read-out: 3 days
Measured: 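Per-well intracellular GFP measured by laser scanning cytometry, plus viability from ATP luminescence, each relative to plate median of non-targeting control wells, in %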
Reading the numbers: GFP, % of control: higher = more GFP per well, higher productivity; viability (ATP), % of control: higher = more viable cells (more ATP)
Active means: 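a knock-down is called active if GFP reaches 120% or more of non-targeting control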

| gene | siRNA no. | GFP, % of control | viability (ATP), % of control |
| --- | --- | --- | --- |
| Zfp523 (GeneID 224656) | 1 | 82.5 | 83.8 |
| Zfp523 (GeneID 224656) | 2 | 67.4 | 53.1 |
| Rad50 (GeneID 19360) | 1 | 92 | 96.8 |
| Rad50 (GeneID 19360) | 2 | 78 | 69 |
| Rad50 (GeneID 19360) | 3 | 81.1 | 86.2 |
| Rsph9 (GeneID 75564) | 1 | 59 | 104 |
| Rsph9 (GeneID 75564) | 2 | 57 | 37.6 |
| Rsph9 (GeneID 75564) | 3 | 79.9 | 80.8 |
| B4galt3 (GeneID 57370) | 1 | 94.6 | 96 |
| B4galt3 (GeneID 57370) | 2 | 91.7 | 89.9 |
| B4galt3 (GeneID 57370) | 3 | 77.9 | 125 |
| Mfap3l (GeneID 71306) | 1 | 54.4 | 36.4 |
| Mfap3l (GeneID 71306) | 2 | 69.3 | 70.8 |
| Mfap3l (GeneID 71306) | 3 | 59.3 | 55.3 |
| Tff1 (GeneID 21784) | 1 | 61.5 | 75.8 |
| Tff1 (GeneID 21784) | 2 | 93.7 | 78.3 |
| Tff1 (GeneID 21784) | 3 | 78.9 | 82 |
| Tacc2 (GeneID 57752) | 1 | 63.9 | 60.6 |
| Tacc2 (GeneID 57752) | 2 | 94.6 | 67 |
| Tacc2 (GeneID 57752) | 3 | 144 (active) | 115 |
| Acp1 (GeneID 11431) | 1 | 98.3 | 87.4 |
| Acp1 (GeneID 11431) | 2 | 78.6 | 69.1 |
| Acp1 (GeneID 11431) | 3 | 87.1 | 55.9 |
| Sox21 (GeneID 223227) | 1 | 72 | 72.7 |
| Sox21 (GeneID 223227) | 2 | 90.1 | 81.8 |
| Sox21 (GeneID 223227) | 3 | 90.3 | 90.5 |
| Tmem132a (GeneID 98170) | 1 | 95.2 | 111 |
| Tmem132a (GeneID 98170) | 2 | 53.1 | 49.7 |
| Tmem132a (GeneID 98170) | 3 | 55.1 | 61.5 |
| Or2y16 (GeneID 258459) | 1 | 121 (active) | 108 |
| Or2y16 (GeneID 258459) | 2 | 107 | 59.6 |
| Or2y16 (GeneID 258459) | 3 | 69.8 | 115 |
| Rpl13a (GeneID 22121) | 1 | 40.7 | 29.1 |
| Rpl13a (GeneID 22121) | 2 | 119 | 34.6 |
| Rpl13a (GeneID 22121) | 3 | 87 | 66.8 |
| Ibtk (GeneID 108837) | 1 | 83.2 | 50.9 |
| Ibtk (GeneID 108837) | 2 | 59.4 | 71.5 |
| Ibtk (GeneID 108837) | 3 | 78.3 | 59.6 |
| Or5ak23 (GeneID 258427) | 1 | 94.1 | 64.9 |
| Or5ak23 (GeneID 258427) | 2 | 90.4 | 93.4 |
| Or5ak23 (GeneID 258427) | 3 | 51.9 | 36.7 |

9 of these entries in another layout:
{"gene": "Sox21 (GeneID 223227)", "siRNA no.": 1, "GFP, % of control": 72, "viability (ATP), % of control": 72.7}
{"gene": "Sox21 (GeneID 223227)", "siRNA no.": 2, "GFP, % of control": 90.1, "viability (ATP), % of control": 81.8}
{"gene": "Sox21 (GeneID 223227)", "siRNA no.": 3, "GFP, % of control": 90.3, "viability (ATP), % of control": 90.5}
{"gene": "Tmem132a (GeneID 98170)", "siRNA no.": 1, "GFP, % of control": 95.2, "viability (ATP), % of control": 111}
{"gene": "Tmem132a (GeneID 98170)", "siRNA no.": 2, "GFP, % of control": 53.1, "viability (ATP), % of control": 49.7}
{"gene": "Tmem132a (GeneID 98170)", "siRNA no.": 3, "GFP, % of control": 55.1, "viability (ATP), % of control": 61.5}
{"gene": "Or2y16 (GeneID 258459)", "siRNA no.": 1, "GFP, % of control": "121 (active)", "viability (ATP), % of control": 108}
{"gene": "Or2y16 (GeneID 258459)", "siRNA no.": 2, "GFP, % of control": 107, "viability (ATP), % of control": 59.6}
{"gene": "Or2y16 (GeneID 258459)", "siRNA no.": 3, "GFP, % of control": 69.8, "viability (ATP), % of control": 115}

The listing continues:
| gene | siRNA no. | GFP, % of control | viability (ATP), % of control |
| --- | --- | --- | --- |
| 1700018B08Rik (GeneID 76405) | 1 | 80.3 | 71.4 |
| 1700018B08Rik (GeneID 76405) | 2 | 87.1 | 111 |
| 1700018B08Rik (GeneID 76405) | 3 | 93.9 | 78.4 |
| Snrpa1 (GeneID 68981) | 1 | 141 (active) | 103 |
| Snrpa1 (GeneID 68981) | 2 | 86.4 | 64.3 |
| Arhgef10 (GeneID 234094) | 1 | 21.3 | 47.5 |
| Arhgef10 (GeneID 234094) | 2 | 43.9 | 56.8 |
| Vps35l (GeneID 71517) | 1 | 101 | 71 |
| Vps35l (GeneID 71517) | 2 | 78.1 | 78.3 |
| Vps35l (GeneID 71517) | 3 | 76.1 | 101 |
| Ube4b (GeneID 63958) | 1 | 89.3 | 94.6 |
| Ube4b (GeneID 63958) | 2 | 73.6 | 85.2 |
| Ube4b (GeneID 63958) | 3 | 59.3 | 68.5 |
| Ucp2 (GeneID 22228) | 1 | 120 | 85.4 |
| Ucp2 (GeneID 22228) | 2 | 58.8 | 55.4 |
| Ucp2 (GeneID 22228) | 3 | 133 (active) | 106 |
| Ifit3 (GeneID 15959) | 1 | 66.9 | 82.9 |
| Ifit3 (GeneID 15959) | 2 | 159 (active) | 65.4 |
| Ifit3 (GeneID 15959) | 3 | 52.5 | 89.4 |
| Cmtm3 (GeneID 68119) | 1 | 79.4 | 86.8 |
| Cmtm3 (GeneID 68119) | 2 | 86.6 | 72.7 |
| Cmtm3 (GeneID 68119) | 3 | 97 | 106 |
| Oxnad1 (GeneID 218885) | 1 | 88.1 | 97.5 |
| Oxnad1 (GeneID 218885) | 2 | 70.3 | 71.3 |
| Oxnad1 (GeneID 218885) | 3 | 55.2 | 25.6 |
| Arhgef6 (GeneID 73341) | 1 | 106 | 75.1 |
| Arhgef6 (GeneID 73341) | 2 | 58.9 | 68.7 |
| Arhgef6 (GeneID 73341) | 3 | 93.9 | 99.1 |
| Slc17a3 (GeneID 105355) | 1 | 88.3 | 99.8 |
| Slc17a3 (GeneID 105355) | 2 | 64 | 66.4 |
| Slc17a3 (GeneID 105355) | 3 | 47 | 64.8 |
| Hsd3b4 (GeneID 15495) | 1 | 63.5 | 45 |
| Hsd3b4 (GeneID 15495) | 2 | 96.3 | 74.4 |
| Hsd3b4 (GeneID 15495) | 3 | 67.3 | 78 |
| Tmem71 (GeneID 213068) | 1 | 47.3 | 32.4 |
| Tmem71 (GeneID 213068) | 2 | 66.2 | 97.9 |
| Tmem71 (GeneID 213068) | 3 | 67.3 | 75.7 |
| Zcchc3 (GeneID 67917) | 1 | 83.7 | 69.4 |
| Zcchc3 (GeneID 67917) | 2 | 67.4 | 72.4 |
| Zcchc3 (GeneID 67917) | 3 | 84.8 | 80 |
| Pdzrn3 (GeneID 55983) | 1 | 40.8 | 58.6 |
| Pdzrn3 (GeneID 55983) | 2 | 63.1 | 50.4 |
| Pdzrn3 (GeneID 55983) | 3 | 66.2 | 82 |
